Source: publication PMC10654059
These are yes or no findings as the source states them, for the method shown. For some of these results: In cells and extracts the contact can be indirect. Some entries that bind do so weakly or less than the wild type. For some of these results: Tags and fused reporters may be left off the sequences shown. Each block holds one molecule with its values, some of them ahead of it.

Amino acid sequences for entries named in this document (tags omitted).
UniProt P0A6X3: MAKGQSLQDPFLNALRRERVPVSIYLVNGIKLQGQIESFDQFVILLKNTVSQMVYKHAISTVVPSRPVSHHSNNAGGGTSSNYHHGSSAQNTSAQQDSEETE

How the values were obtained:
[1] = biological target: T1, NudC, two-hybrid fusion used with Hfq (E. coli) (UniProt P32664); experiment: two-hybrid; bacterial adenylate cyclase two-hybrid (BACTH) in E. coli BTH101; T18 and T25 fusions; colonies on LB agar with X-gal (40 µg/mL) and IPTG (0.5 mM) at 30°C, colour read after 2 days
T1 sequence: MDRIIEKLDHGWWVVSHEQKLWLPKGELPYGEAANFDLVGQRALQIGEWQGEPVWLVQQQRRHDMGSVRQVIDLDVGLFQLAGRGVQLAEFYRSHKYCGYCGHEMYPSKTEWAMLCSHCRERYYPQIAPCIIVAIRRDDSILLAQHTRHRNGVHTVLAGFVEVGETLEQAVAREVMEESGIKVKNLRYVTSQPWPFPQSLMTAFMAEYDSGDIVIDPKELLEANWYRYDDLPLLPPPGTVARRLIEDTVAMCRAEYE

[2] = biological target: T2, polyhistidine-tagged NudC (NudC-His) (E. coli) (UniProt P32664); experiment: pull-down; 243 µg purified recombinant NudC-His added to 5 mg lysate of E. coli BL21(DE3)RIL (16°C or 37°C) or BW25113 (16°C); Ni2+-charged Chelating Sepharose, 1 h 30 min at 8°C, washes with 60 mM imidazole; SDS-PAGE, band near 70 kDa cut out and identified by mass spectrometry; only the target purified
T2 sequence: T1 sequence

[3] = biological target: T3, NudC-His expressed in an Hfq-deficient strain (JW4130) (E. coli) (UniProt P32664); experiment: pull-down; NudC-His expressed in E. coli BL21(DE3)RIL (grown at 16°C or 37°C) or in Hfq-deficient JW4130 (16°C); 5 mg lysate on Ni2+-charged Chelating Sepharose, 1 h 30 min at 8°C, washes with 60 mM imidazole in lysis buffer B (pH 7.4, 100 mM NaCl); SDS-PAGE, band near 70 kDa cut out and identified by mass spectrometry
T3 sequence: T1 sequence

[4] = biological target: T4, T18-NudC (E. coli) (UniProt P32664); experiment: two-hybrid; bacterial adenylate cyclase two-hybrid (BACTH) in E. coli BTH101; T18 and T25 fusions; colonies on LB agar with X-gal (40 µg/mL) and IPTG (0.5 mM) at 30°C, colour read after 2 days
T4 sequence: T1 sequence

- binding [1]: binds
Molecule: Hfq fused to T18 or T25 adenylate cyclase subunit (from UniProt P0A6X3 1-102)

- binding [2]: binds
- binding [3]: binds
B1: DEAD-box RNA helicase CsdA (K-12 strains) (protein, UniProt P0A9P6 1-629)
chain: MAEFETTFADLGLKAPILEALNDLGYEKPSPIQAECIPHLLNGRDVLGMAQTGSGKTAAFSLPLLQNLDPELKAPQILVLAPTRELAVQVAEAMTDFSKHMRGVNVVALYGGQRYDVQLRALRQGPQIVVGTPGRLLDHLKRGTLDLSKLSGLVLDEADEMLRMGFIEDVETIMAQIPEGHQTALFSATMPEAIRRITRRFMKEPQEVRIQSSVTTRPDISQSYWTVWGMRKNEALVRFLEAEDFDAAIIFVRTKNATLEVAEALERNGYNSAALNGDMNQALREQTLERLKDGRLDILIATDVAARGLDVERISLVVNYDIPMDSESYVHRIGRTGRAGRAGRALLFVENRERRLLRNIERTMKLTIPEVELPNAELLGKRRLEKFAAKVQQQLESSDLDQYRALLSKIQPTAEGEELDLETLAAALLKMAQGERTLIVPPDAPMRPKREFRDRDDRGPRDRNDRGPRGDREDRPRRERRDVGDMQLYRIEVGRDDGVEVRHIVGAIANEGDISSRYIGNIKLFASHSTIELPKGMPGEVLQHFTRTRILNKPMNMQLLGDAQPHTGGERRGGGRGFGGERREGGRNFSGERREGGRGDGRRFSGERREGRAPRRDDSTGRRRFGGDA

- binding [4]: binds
B2: CsdA-T25 (protein, UniProt P0A9P6 1-629)
chain: B1 chain
